Values quoted from earlier work as cited in patent US6051557A, “Methods of enhancing functioning of the upper gastrointestinal tract” (1149336 Ontario Inc., priority 1998, dated 2000).

Settings: healthy adult humans, cited from earlier work

His-Ala-Asp-Gly-Ser-Phe-Ser-Asp-Glu-Met-Asn-Thr-Ile-Leu-Asp-Asn-Leu-Ala-Ala-Arg-Asp-Phe-Ile-Asn-Trp-Leu-Ile-Gln-Thr-Lys-Ile-Thr-Asp [GLP-2]
amount normally circulating in the plasma, after nutrient ingestion (after nutrient ingestion): ~225 pmol/mL
amount normally circulating in the plasma, resting state (resting state): ~151 pmol/mL
